Results deposited as PubChem BioAssay AID1259299 (Sanger Institute, 2017)

Screen: 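Essential genes and drug-synergistic partners among kinases and colorectal mutation genes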 (primary screen)
System: human CAR1 colorectal cancer cells
Knock-down reagent: siRNA pool against human genes
Conditions: anchor drug BYL719 1 µM, cetuximab 5 µg/ml or trametinib 10 nM, or DMSO vehicle alone; exposure length not given
Detection: 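Cell viability as fraction of non-targeting siRNA wells, mean of replicates, with robust z-score and a synergy score for each of three drugs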
Direction: viability robust z-score, knock-down alone: higher = more viable cells
Active means: 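Essential when viability robust z-score with knock-down alone (DMSO) is below -3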
Meaning of the calls: active = essential (knock-down alone); inactive = no change
Here is an unselected part of 794 reagents. Over the whole deposit, 9 (1.1%) were called active. 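Calls rest on knock-down alone; synergy scores play no part in calls, and no gene passed the synergy cut.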 Further read-outs or replicates are left out here. Not stated in the record: the amount of reagent, the time to read-out.

With knock-down of MAPK15 [SID152151405], the record shows viability robust z-score, knock-down alone 0.789; inactive.
With knock-down of CKS2 [SID56479182], the screen gave viability robust z-score, knock-down alone 0.249; inactive.
TAOK3 [SID152152167] gave viability robust z-score, knock-down alone 0.789; inactive.
PHKA2 [SID56479176] gave viability robust z-score, knock-down alone -0.69; inactive.
CDK12 [SID152151382] scored viability robust z-score, knock-down alone 0.636; inactive.
Knock-down of PRKAA1 [SID152155693] resulted in: viability robust z-score, knock-down alone 0.789; inactive.
For PBK [SID56479058], the values are viability robust z-score, knock-down alone 0.41; inactive.
For MAST2 [SID152154248], the entry reads viability robust z-score, knock-down alone 0.789; inactive.
Silencing of KRAS [SID134310727] resulted in: viability robust z-score, knock-down alone -0.666; inactive.
With knock-down of PRKAA2 [SID152151654] the results were viability robust z-score, knock-down alone 0.789; inactive.
For MAP2K5 [SID135620764], the entry reads viability robust z-score, knock-down alone 0.789; inactive.
Against RAF1 [SID152152442] the deposit lists viability robust z-score, knock-down alone 0.789; inactive.
With knock-down of HIPK3 [SID152151658], the screen gave viability robust z-score, knock-down alone -0.701; inactive.
After knock-down of CSF1R [SID152152485] the results were viability robust z-score, knock-down alone -1.53; inactive.
Depletion of PKM [SID135621254] resulted in: viability robust z-score, knock-down alone -0.692; inactive.
After knock-down of NR4A2 [SID134309878], the record shows viability robust z-score, knock-down alone -2.42; inactive.
Against SF3B1 [SID152151347], the values are viability robust z-score, knock-down alone -1.98; inactive.
Knock-down of NPR2 [SID152151652] resulted in: viability robust z-score, knock-down alone 0.432; inactive.
Knock-down of PDGFRA [SID135620628] gave: viability robust z-score, knock-down alone -0.0149; inactive.
Knock-down of CDK9 [SID152156235] gave: viability robust z-score, knock-down alone -0.138; inactive.
Silencing of ERN1 [SID135620914] came out at: viability robust z-score, knock-down alone -0.325; inactive.
After knock-down of CLK1 [SID152154455], the screen gave viability robust z-score, knock-down alone 0.284; inactive.
AK4 [SID152149659] showed viability robust z-score, knock-down alone -1.41; inactive.
Against ABL2 [SID152153611] the deposit lists viability robust z-score, knock-down alone 0.476; inactive.
Depletion of PRKCI [SID152150879] resulted in: viability robust z-score, knock-down alone 0.67; inactive.
CDC42BPA [SID152147424] scored viability robust z-score, knock-down alone -0.161; inactive.
CDC42BPB [SID152149037] scored viability robust z-score, knock-down alone 0.789; inactive.
After knock-down of KCNH2 [SID135621164], the record shows viability robust z-score, knock-down alone -2.64; inactive.

4 entries already listed, arranged by “viability robust z-score, knock-down alone”, highest first.
NPR2 [SID152151652] — viability robust z-score, knock-down alone = 0.432; call = inactive
PDGFRA [SID135620628] — viability robust z-score, knock-down alone = -0.0149; call = inactive
CDK9 [SID152156235] — viability robust z-score, knock-down alone = -0.138; call = inactive
ERN1 [SID135620914] — viability robust z-score, knock-down alone = -0.325; call = inactive
